Data as given in PubChem BioAssay AID686937 (Drosophila RNAi Screening Center, 2013)
Aim: 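Genes in the fly needed for secretion of protein constitutively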 (primary screen). Cells: Drosophila S2 cells expressing secreted horseradish peroxidase. Reagent: long dsRNA against Drosophila genes. Duration: about 5.5 days (5 days dsRNA, then 12 h reporter induction). Conditions: reporter expression induced after 5 days of dsRNA, read 12 h later; inducer not stated. Measured: 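Chemiluminescent measurement of peroxidase in the medium 12 h after reporter induction, following 5 days of dsRNA, given as a z-score per plate; higher means more secretion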. Scale: z-score: higher = more reporter secreted into medium.
In all, the deposit lists about 23,000 reagents; shown is an unselected part of those that have a named target and a result. 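Reduced-secretion tags in replicate 1 do not always agree with the z-scores; no criterion for assigning the tags was given.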 Names joined by + are all predicted targets of the reagent. Not all columns of the deposit are shown. Not given: the amount of reagent.

| target gene | dsRNA | z-score, replicate 1 | z-score, replicate 2 |
| --- | --- | --- | --- |
| lic (GeneID 32257) | DRSC20347 | 0.03 | -0.49 |
| CG43376 (GeneID 12798198) | DRSC02537 | 0.25 | 0.33 |
| CG14416 (GeneID 31273) | DRSC18639 | 0.48 | 0.48 |
| Cyp4d8 (GeneID 38841) | DRSC11131 | 0.39 | 0.31 |
| mRpS30 (GeneID 32530) | DRSC20107 | 0.19 | 0.24 |
| CAH4 (GeneID 42965) | DRSC22433 | 0.34 | 0.11 |
| CG13021 (GeneID 31323) | DRSC17893 | -2.98 | -0.27 |
| coro (GeneID 35596) | DRSC05007 | 0.1 | 0.25 |
| coro (GeneID 35596) | DRSC21417 | 0.14 | 0.5 |
| Sry-delta (GeneID 43572) | DRSC16869 | 0.11 | 0.32 |
| stw (GeneID 35494) | DRSC04842 | 0.3 | 0.11 |
| stw (GeneID 35494) | DRSC04843 | 0.09 | 0.21 |
| stw (GeneID 35494) | DRSC22527 | 0.32 | 0.3 |
| pll (GeneID 43283) | DRSC17026 | -0.25 | 0.23 |
| NaPi-III (GeneID 39255) | DRSC10893 | 0.51 | 0.36 |
| NaPi-III (GeneID 39255) | DRSC10894 | -0.48 | -0.37 |
| NaPi-III (GeneID 39255) | DRSC22953 | -0.61 | -0.18 |
| CG34115 (GeneID 4379880) | DRSC03840 | -0.31 | -0.22 |
| Cdk4 (GeneID 36854) | DRSC07358 | -0.25 | -0.11 |
| oxt (GeneID 38288) | DRSC08522 | 0.16 | 0.47 |
| CG11779 (GeneID 42298) | DRSC14384 | 0.13 | 0.03 |
| CG14568 (GeneID 40418) | DRSC11729 | 0.36 | 0.44 |
| DIP-theta (GeneID 33795) | DRSC00885 | 0.55 | 0.23 |
| DIP-theta (GeneID 33795) | DRSC02340 | 0.68 | 0.5 |
| DIP-theta (GeneID 33795) | DRSC02341 | 0.23 | 0.46 |
| nsr (GeneID 37577) | DRSC04427 | 0.4 | 0.48 |
| nsr (GeneID 37577) | DRSC22806 | 0.41 | -1.35 |
| Cpr92F (GeneID 42450) | DRSC15819 | 0.4 | 0.64 |
| CG31698 (GeneID 318888) | DRSC22226 | 0.49 | 0.33 |
| CG32436 (GeneID 40362) | DRSC11683 | 0.13 | 0.52 |
| CG32436 (GeneID 40362) | DRSC11796 | 0.25 | 0.31 |
| Sytalpha (GeneID 35068) | DRSC02869 | 0 | 0.31 |
| CG1409 (GeneID 31689) | DRSC17910 | -0.15 | -0.3 |
| CG3520 (GeneID 37708) | DRSC04383 | 0.28 | 0.48 |
| Eig71Ej (GeneID 39711) | DRSC11157 | 0.28 | 0.35 |
| CG30357 (GeneID 246563) | DRSC22472 | -0.55 | 0 |
| lncRNA:CR43485 (GeneID 12798587) | DRSC08059 | -0.1 | -0.31 |
| Myb (GeneID 32543) | DRSC20260 | -0.86 | -1.35 |
| Acph-1 (GeneID 48445) | DRSC14103 | 0.06 | -0.44 |
| CG9406 (GeneID 37405) | DRSC04552 | 1.31 | 0.22 |
| CG13130 (retired record) (GeneID 50439) | DRSC02226 | -1.3 | -0.76 |
| glec (GeneID 42571) | DRSC16958 | 0.25 | 0.39 |
| Gr22c (GeneID 117499) | DRSC22081 | 0.19 | -0.29 |
| Vajk2 (GeneID 34811) | DRSC02540 | 0.31 | 0.18 |
| CG7126 (GeneID 42202) | DRSC16201 | 0.1 | 0.38 |
| CG1812 (GeneID 33049) | DRSC20557 | 0.42 | 0.54 |
| CG11771 (GeneID 42984) | DRSC14379 | 0.41 | 0 |
| Drgx (GeneID 5740176) | DRSC00278 | 0.34 | 0.11 |
| Drgx (GeneID 5740176) | DRSC00537 | 0.21 | 0.42 |
| CG9391 (GeneID 40346) | DRSC11858 | 0.11 | 0.37 |
| Daao2 (GeneID 33955) | DRSC02135 | 0.41 | 0.26 |
| CG4318 (GeneID 32266) | DRSC19887 | 0.34 | 0.16 |
| CG8630 (GeneID 41629) | DRSC16441 | -0.31 | -1 |
| CG14260 (GeneID 43287) | DRSC14755 | 0.19 | 0.05 |
| CG4650 (GeneID 34859) | DRSC02767 | 0.34 | -0.04 |
| Cdc45 (GeneID 31052) | DRSC17747 | 0 | 0 |
| Cdc45 (GeneID 31052) | DRSC18164 | 0.04 | 0.26 |
| Cyp4d1 (GeneID 31188) | DRSC17694 | -0.48 | 0.47 |
| Cyp4d1 (GeneID 31188) | DRSC18456 | 0.09 | 0.28 |
| CG5790 (GeneID 35095) | DRSC02896 | 0.03 | 0.21 |
| CG11562 (GeneID 33200) | DRSC00316 | 0.29 | 0.14 |
| CG42260 (GeneID 37614) | DRSC04172 | 0.28 | 0.02 |
| CG42260 (GeneID 37614) | DRSC04385 | 0.2 | 0.34 |
| CG32428 (GeneID 50105) | DRSC11697 | -0.6 | -0.29 |
| CG32428 (GeneID 50105) | DRSC11768 | 0.23 | 0.34 |
| CG42818 (GeneID 10178877) | DRSC01963 | 0 | 0.27 |
| alphaCOP (GeneID 38199) | DRSC08706 | 0.01 | 0.05 |
| ase (GeneID 30985) | DRSC18739 | 0.35 | 0.35 |
| CG13202 (GeneID 36222) | DRSC06326 | 0.38 | 0.31 |
| CG7135 (GeneID 32793) | DRSC20026 | 0.06 | 0.47 |
| Prp16 (GeneID 32373) | DRSC19538 | -1.54 | -0.56 |
| Prp16 (GeneID 32373) | DRSC19542 | -1.81 | -2.22 |
| ValRS-m (GeneID 39023) | DRSC10535 | 0.13 | 0.22 |
| cold (GeneID 33237) | DRSC00538 | 0.12 | 0.38 |
| Gle1 (GeneID 35849) | DRSC06485 | 0.32 | 0.46 |
| Eig71Ef (GeneID 39707) | DRSC11153 | 0.61 | 0.46 |
| Cyp6a16Psi (retired record) (GeneID 3772661) | DRSC03307 | -0.4 | -0.33 |
| Ugt304A1 (GeneID 53501) | DRSC15127 | 0.35 | 0.28 |
| S-Lap2 (GeneID 326209) | DRSC10628 | 0.34 | 0.23 |
| Ir47a (GeneID 36095) | DRSC06215 | 0.4 | 0.24 |
| Oxp (GeneID 37002) | DRSC06712 | -0.23 | -0.01 |
| CG6380 (GeneID 35040) | DRSC02950 | -0.18 | 0.17 |
| mbo (GeneID 41562) | DRSC16123 | 0.07 | -0.09 |
| ND-15 (GeneID 33179) | DRSC00311 | 0.1 | 0.13 |
| Fie (GeneID 38452) | DRSC08158 | 0.31 | 0.27 |
| Polr1E (GeneID 42201) | DRSC14506 | 0.23 | 0.17 |
| Polr1E (GeneID 42201) | DRSC15358 | 0.34 | 0.26 |
| CG42662 + CG30080 | DRSC05571 | 0.3 | 0.55 |
| Khc (GeneID 36810) | DRSC07448 | 0.24 | 0.2 |
| tgo (GeneID 41084) | DRSC17077 | 0.29 | 0.45 |
| Pal2 (GeneID 37746) | DRSC04507 | 0.29 | 0.3 |
| Jhbp6 (GeneID 40479) | DRSC11714 | 0.45 | 0.54 |
| CG8289 (GeneID 32741) | DRSC20101 | 0.14 | 0.36 |
| sphinx1 (GeneID 318005) | DRSC10993 | 0.19 | 0.43 |
| CG13454 (GeneID 39676) | DRSC10001 | 0.67 | 0.7 |
| CG31493 (GeneID 318765) | DRSC12583 | 0.19 | 0.17 |
| CG5447 (GeneID 43192) | DRSC15801 | -0.5 | -1.66 |
| CG8814 (GeneID 33492) | DRSC00707 | 0.24 | 0.17 |
| CG13065 (GeneID 39786) | DRSC09948 | 0.08 | 0.2 |
| CG7523 (GeneID 42125) | DRSC16254 | 0.42 | 0.29 |
| Gr63a (GeneID 38453) | DRSC08438 | 0.15 | 0.22 |
| CG2321 (GeneID 43471) | DRSC15439 | 0.6 | 0.58 |
| Grip (GeneID 50391) | DRSC17940 | -3.11 | -2.21 |
| Grip (GeneID 50391) | DRSC18395 | 0.22 | 0.01 |

Look-ups from the list.
For “z-score, replicate 1”, Sytalpha (GeneID 35068) [DRSC02869] has 0
For “z-score, replicate 2”, CG5790 (GeneID 35095) [DRSC02896] shows 0.21
Entry for CG14416 (GeneID 31273) [DRSC18639] under “z-score, replicate 2”: 0.48
Under “z-score, replicate 2”, mbo (GeneID 41562) [DRSC16123] is entered as -0.09
CG8630 (GeneID 41629) [DRSC16441], z-score, replicate 1: -0.31
CG7523 (GeneID 42125) [DRSC16254], z-score, replicate 1: 0.42
